Measured values: the supplement of paper PMC10849652
This is one part of the list.

Protein sequences, listed by entry. Tags and fused reporters are not part of them. Lines headed by an entry give the natural chain unless they say otherwise; changes in a name come on top.
UniProt Q9NVC3: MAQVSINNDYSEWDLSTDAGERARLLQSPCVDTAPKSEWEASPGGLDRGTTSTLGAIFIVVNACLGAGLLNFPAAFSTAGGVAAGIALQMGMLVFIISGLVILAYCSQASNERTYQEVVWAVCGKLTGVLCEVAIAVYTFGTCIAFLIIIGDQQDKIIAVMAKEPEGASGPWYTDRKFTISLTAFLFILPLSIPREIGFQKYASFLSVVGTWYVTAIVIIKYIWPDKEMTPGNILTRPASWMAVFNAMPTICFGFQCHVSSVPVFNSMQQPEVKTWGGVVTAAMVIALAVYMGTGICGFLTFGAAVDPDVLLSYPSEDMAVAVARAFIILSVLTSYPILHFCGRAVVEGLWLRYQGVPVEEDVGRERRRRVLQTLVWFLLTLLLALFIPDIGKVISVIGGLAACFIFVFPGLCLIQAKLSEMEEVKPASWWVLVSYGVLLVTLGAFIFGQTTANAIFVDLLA
UniProt Q9BRY0: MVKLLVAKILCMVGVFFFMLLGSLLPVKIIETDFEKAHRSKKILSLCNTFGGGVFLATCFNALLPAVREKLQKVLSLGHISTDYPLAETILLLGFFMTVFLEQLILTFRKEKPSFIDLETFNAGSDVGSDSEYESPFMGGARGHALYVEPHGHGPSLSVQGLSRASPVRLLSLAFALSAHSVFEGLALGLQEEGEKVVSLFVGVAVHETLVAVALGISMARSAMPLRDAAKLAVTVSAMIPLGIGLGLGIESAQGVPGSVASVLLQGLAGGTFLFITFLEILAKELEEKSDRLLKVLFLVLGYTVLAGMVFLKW
UniProt Q6NT16: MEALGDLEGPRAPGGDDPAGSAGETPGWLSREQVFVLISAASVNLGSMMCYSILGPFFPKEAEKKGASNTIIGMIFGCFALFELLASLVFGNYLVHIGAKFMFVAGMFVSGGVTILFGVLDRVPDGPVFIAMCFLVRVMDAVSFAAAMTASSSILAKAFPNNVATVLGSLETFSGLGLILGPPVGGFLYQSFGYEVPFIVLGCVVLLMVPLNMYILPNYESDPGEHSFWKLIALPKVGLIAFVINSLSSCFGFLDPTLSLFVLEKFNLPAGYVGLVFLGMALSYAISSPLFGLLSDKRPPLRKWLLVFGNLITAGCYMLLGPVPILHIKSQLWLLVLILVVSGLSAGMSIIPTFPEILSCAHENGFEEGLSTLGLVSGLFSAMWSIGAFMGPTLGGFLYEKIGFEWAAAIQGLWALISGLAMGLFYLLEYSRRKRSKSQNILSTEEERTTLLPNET
UniProt P43007: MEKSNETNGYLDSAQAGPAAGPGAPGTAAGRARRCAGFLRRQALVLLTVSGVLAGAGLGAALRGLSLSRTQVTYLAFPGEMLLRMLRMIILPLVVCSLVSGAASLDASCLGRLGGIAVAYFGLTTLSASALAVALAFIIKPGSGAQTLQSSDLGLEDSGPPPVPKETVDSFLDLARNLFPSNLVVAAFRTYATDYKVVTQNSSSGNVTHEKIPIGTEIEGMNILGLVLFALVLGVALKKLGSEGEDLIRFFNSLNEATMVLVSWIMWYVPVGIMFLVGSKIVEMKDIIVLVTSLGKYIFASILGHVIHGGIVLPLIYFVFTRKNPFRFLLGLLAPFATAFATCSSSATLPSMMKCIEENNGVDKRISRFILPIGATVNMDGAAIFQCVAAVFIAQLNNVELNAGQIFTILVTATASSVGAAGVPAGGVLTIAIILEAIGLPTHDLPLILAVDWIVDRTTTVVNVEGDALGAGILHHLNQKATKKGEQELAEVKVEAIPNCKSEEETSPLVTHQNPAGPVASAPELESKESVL
UniProt Q86VD7: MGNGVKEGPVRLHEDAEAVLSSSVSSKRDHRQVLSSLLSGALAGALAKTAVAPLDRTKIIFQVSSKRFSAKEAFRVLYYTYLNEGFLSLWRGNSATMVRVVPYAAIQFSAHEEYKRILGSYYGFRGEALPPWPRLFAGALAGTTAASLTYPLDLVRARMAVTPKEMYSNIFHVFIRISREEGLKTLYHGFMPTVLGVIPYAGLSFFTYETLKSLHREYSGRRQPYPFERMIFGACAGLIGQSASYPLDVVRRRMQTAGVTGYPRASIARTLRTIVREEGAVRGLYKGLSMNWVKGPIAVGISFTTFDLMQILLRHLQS
UniProt Q00325: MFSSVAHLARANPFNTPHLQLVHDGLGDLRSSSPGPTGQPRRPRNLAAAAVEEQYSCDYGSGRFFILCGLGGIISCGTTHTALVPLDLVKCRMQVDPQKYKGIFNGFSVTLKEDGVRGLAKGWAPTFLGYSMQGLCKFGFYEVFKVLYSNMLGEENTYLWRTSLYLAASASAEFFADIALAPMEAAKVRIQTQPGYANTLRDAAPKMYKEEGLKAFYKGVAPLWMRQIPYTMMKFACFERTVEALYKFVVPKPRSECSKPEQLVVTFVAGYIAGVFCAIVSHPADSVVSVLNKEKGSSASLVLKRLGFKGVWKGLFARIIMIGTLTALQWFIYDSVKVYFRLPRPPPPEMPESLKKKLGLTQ
UniProt Q70HW3: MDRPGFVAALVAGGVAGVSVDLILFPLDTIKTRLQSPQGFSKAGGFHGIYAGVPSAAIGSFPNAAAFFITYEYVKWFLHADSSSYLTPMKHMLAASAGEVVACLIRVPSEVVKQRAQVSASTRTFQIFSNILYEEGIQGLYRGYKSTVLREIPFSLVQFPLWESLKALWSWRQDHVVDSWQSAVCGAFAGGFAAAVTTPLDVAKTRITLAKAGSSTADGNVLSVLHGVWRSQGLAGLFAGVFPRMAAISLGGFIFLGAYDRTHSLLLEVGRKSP
UniProt Q9BZJ4: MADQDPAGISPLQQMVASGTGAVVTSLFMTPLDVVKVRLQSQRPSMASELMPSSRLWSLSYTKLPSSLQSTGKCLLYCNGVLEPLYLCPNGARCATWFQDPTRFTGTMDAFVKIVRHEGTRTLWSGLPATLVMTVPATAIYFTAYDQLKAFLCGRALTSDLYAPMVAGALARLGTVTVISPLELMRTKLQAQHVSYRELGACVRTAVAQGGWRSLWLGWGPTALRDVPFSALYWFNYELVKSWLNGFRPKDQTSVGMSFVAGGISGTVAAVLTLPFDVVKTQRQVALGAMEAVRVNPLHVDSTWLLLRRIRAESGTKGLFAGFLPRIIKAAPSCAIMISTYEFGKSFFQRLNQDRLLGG
UniProt Q6XR72: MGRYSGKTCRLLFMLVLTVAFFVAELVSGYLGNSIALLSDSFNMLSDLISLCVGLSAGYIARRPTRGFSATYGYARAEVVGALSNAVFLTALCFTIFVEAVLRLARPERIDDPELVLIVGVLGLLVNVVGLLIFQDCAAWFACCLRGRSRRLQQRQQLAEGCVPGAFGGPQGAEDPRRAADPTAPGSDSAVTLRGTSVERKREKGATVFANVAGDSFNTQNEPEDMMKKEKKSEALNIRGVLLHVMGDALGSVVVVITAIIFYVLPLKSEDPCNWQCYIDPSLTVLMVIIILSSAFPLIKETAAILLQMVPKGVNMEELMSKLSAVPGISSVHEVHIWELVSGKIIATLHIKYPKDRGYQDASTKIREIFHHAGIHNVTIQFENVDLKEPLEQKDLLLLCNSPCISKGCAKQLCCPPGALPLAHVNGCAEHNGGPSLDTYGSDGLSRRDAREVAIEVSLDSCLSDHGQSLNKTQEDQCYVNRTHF
UniProt P04920: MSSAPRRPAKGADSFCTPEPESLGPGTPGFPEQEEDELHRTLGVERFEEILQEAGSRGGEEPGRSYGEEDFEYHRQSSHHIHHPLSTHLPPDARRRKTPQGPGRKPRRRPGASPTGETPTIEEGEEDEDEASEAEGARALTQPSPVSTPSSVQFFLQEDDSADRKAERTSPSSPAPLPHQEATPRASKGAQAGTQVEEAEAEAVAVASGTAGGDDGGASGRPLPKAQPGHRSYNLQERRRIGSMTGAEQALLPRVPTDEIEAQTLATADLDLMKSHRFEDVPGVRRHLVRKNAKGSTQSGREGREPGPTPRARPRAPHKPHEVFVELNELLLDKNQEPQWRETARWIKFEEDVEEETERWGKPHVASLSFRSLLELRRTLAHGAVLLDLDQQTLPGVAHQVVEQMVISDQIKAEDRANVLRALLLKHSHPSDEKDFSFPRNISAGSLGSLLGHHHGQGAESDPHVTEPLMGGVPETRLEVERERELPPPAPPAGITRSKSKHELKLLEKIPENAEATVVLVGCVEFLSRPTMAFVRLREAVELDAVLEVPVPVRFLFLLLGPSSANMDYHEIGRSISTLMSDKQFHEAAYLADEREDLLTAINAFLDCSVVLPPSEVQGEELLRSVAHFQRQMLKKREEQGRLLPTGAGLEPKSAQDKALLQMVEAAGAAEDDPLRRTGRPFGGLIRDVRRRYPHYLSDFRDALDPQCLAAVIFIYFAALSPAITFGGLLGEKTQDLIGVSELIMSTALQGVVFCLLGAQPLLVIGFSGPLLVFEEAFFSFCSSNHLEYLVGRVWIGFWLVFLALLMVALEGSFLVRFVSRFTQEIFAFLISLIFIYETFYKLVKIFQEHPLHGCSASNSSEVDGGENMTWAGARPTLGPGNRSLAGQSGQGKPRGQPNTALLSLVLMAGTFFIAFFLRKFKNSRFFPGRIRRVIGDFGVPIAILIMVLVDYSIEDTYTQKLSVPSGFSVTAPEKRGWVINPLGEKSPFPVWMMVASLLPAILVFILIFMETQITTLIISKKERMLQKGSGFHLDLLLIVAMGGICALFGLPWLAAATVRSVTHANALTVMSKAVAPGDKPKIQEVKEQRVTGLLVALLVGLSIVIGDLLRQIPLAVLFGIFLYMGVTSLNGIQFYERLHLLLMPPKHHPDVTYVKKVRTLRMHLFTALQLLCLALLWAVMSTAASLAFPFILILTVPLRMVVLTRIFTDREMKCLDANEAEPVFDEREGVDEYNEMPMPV
UniProt P53985: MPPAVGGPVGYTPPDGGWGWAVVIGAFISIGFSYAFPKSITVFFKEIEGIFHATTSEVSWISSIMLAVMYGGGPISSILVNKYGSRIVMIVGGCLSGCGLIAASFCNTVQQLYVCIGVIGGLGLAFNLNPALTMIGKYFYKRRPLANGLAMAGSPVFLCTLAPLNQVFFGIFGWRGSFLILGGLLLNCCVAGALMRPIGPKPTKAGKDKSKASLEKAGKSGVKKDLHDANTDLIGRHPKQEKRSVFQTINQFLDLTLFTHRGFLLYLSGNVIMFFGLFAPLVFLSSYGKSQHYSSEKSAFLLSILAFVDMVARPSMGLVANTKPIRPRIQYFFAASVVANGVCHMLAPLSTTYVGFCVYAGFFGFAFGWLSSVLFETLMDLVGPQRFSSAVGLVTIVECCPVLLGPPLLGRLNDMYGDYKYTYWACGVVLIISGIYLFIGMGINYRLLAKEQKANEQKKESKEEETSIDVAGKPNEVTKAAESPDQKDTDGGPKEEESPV
UniProt Q14493, whole entry, looked up: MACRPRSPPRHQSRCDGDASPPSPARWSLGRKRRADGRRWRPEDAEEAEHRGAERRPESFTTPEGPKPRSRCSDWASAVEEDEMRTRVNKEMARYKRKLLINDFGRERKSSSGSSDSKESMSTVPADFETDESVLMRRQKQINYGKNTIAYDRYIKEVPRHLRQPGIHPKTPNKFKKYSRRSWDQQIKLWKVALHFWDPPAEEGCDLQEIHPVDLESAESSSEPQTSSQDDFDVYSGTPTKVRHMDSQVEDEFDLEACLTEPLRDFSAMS
UniProt Q8NBI5: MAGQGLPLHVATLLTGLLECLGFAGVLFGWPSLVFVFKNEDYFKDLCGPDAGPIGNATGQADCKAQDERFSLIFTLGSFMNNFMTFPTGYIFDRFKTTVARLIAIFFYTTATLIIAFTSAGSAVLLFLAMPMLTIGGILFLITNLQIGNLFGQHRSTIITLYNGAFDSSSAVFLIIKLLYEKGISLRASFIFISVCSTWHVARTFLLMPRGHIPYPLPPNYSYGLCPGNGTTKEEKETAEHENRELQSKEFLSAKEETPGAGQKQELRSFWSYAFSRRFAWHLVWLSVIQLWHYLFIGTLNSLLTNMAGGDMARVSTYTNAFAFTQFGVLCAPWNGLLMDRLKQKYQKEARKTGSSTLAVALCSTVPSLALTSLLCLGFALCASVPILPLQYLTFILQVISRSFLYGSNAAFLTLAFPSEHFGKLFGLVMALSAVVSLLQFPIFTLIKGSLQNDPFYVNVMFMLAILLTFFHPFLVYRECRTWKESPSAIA
UniProt Q9HC21: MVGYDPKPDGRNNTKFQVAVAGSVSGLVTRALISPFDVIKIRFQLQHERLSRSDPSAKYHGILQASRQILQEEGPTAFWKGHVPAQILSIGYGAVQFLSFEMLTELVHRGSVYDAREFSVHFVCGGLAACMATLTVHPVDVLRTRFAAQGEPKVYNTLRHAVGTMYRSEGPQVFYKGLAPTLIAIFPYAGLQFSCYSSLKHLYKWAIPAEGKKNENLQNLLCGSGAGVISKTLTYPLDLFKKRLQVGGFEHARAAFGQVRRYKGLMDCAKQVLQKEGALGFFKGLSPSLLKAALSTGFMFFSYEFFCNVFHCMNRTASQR

What was measured:
Assay in all cases: log2 fold change, soluble protein after heating vs DMSO (PISA); higher = thermal stabilisation; K562 cells, 10 uM, 30 min; active = over 0.2 and 3.5 SD of the protein, either way, in both replicates (recomputed)
[1] = compound: NC(=O)Nc1cc(-c2cccc(F)c2)sc1C(=O)N[C@H]1CCCNC1
Summary of the method: (§1)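 For each measurement, 10 μM compound was applied for 30 min to K562 cells at 2×10^6 cells/mL. Aliquots were heated for 3 min across 48°C-58°C, pooled, and extracted in PBS with 0.5% NP-40 at 4°C; the supernatant after 21,000xg for 90 min was soluble protein. This was quantified by TMTpro 16plex LC-MS/MS with channel sums equalised, and thermal stability was reported relative to control samples from duplicates, on a log2 fold-change scale.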

[2] = compound: NC(=O)c1cnc(N[C@@H]2CCCC[C@@H]2N)nc1Nc1cccc(-n2nccn2)c1
Summary of the method: as §1

[3] = compound: NC1(c2ccc(-c3nc4ccn5c(=O)[nH]nc5c4cc3-c3ccccc3)cc2)CCC1
Summary of the method: as §1

[4] = compound: NCC(=O)Nc1ccc(-n2nc(C(F)(F)F)cc2-c2ccc3c(ccc4ccccc43)c2)cc1
Summary of the method: as §1

entinostat = compound: Nc1ccccc1NC(=O)c1ccc(CNC(=O)OCc2cccnc2)cc1 [entinostat]
Summary of the method: as §1

vorinostat = compound: O=C(CCCCCCC(=O)Nc1ccccc1)NO [vorinostat]
Summary of the method: as §1

citarinostat = compound: O=C(CCCCCCNC(=O)c1cnc(N(c2ccccc2)c2ccccc2Cl)nc1)NO [citarinostat]
Summary of the method: as §1

silmitasertib = compound: O=C(O)c1ccc2c(c1)nc(Nc1cccc(Cl)c1)c1ccncc12 [silmitasertib]
Summary of the method: as §1

[5] = compound: O=C1NC(=O)C(c2cnc3ccccn23)=C1c1cn2c3c(cc(F)cc13)CN(C(=O)N1CCCCC1)CC2
Summary of the method: as §1

[6] = compound: c1cc(OCCN2CCCCC2)cc(-c2n[nH]c3ccc(-c4nnc[nH]4)cc23)c1
Summary of the method: as §1

entospletinib = compound: c1cn2cc(-c3ccc4cn[nH]c4c3)nc(Nc3ccc(N4CCOCC4)cc3)c2n1 [entospletinib]
Summary of the method: as §1

Row | Target | log2 fold change [1] | log2 fold change [2] | log2 fold change [3] | log2 fold change [4] | log2 fold change (entinostat) | log2 fold change (vorinostat) | log2 fold change (citarinostat) | log2 fold change (silmitasertib) | log2 fold change [5] | log2 fold change [6] | log2 fold change (entospletinib)
1 | SLC38A7 (UniProt Q9NVC3) | inactive: -0.017 | inactive: 0.002 | inactive: -0.299 | inactive: 0.197 | inactive: -0.066 | inactive: 0.11 | inactive: 0.085 | inactive: 0.022 | inactive: -0.107 | inactive: -0.004 | 
2 | SLC39A3 (UniProt Q9BRY0) | inactive: -0.06 | inactive: -0.007 | inactive: -0.121 | inactive: -0.056 | inactive: -0.019 | inactive: -0.061 | inactive: 0.046 | inactive: 0.068 | inactive: 0.001 | inactive: -0.113 | inactive: -0.047
3 | SLC1A5 (UniProt Q15758) | inactive: -0.057 | inactive: 0.117 | inactive: 0.155 | inactive: 0.03 | inactive: -0.041 | inactive: -0.039 | inactive: -0.003 | inactive: -0.016 | inactive: -0.001 | inactive: -0.03 | 
4 | SLC30A5 (UniProt Q8TAD4) | inactive: 0.004 | inactive: -0.102 | inactive: -0.152 | inactive: -0.116 | inactive: 0.05 | inactive: 0.025 | inactive: 0.003 | inactive: -0.022 | inactive: -0.1 | inactive: 0.001 | inactive: -0.034
5 | SLC44A2 isoform 2 (UniProt Q8IWA5) | inactive: -0.086 | inactive: 0.168 | inactive: 0.128 | inactive: 0.05 | inactive: -0.06 | inactive: -0.006 | inactive: 0.091 | inactive: -0.071 | inactive: -0.075 | inactive: -0.289 | 
6 | SLC18B1 (UniProt Q6NT16) | inactive: -0.003 | inactive: 0.022 | inactive: -0.093 | inactive: -0.025 | inactive: 0.038 | inactive: -0.162 | inactive: 0.019 | inactive: 0.076 | inactive: 0.044 | inactive: -0.044 | 
7 | SLC12A9 (UniProt Q9BXP2) | inactive: 0.05 | inactive: -0.142 | active: -0.313 | inactive: -0.03 | inactive: 0.021 | inactive: 0.027 | inactive: 0.035 | inactive: 0.017 | inactive: -0.081 | inactive: -0.062 | 
8 | SLC25A17 (UniProt O43808) | inactive: 0.164 | inactive: 0.046 | inactive: -0.011 | inactive: 0 | inactive: 0.045 | inactive: 0 | inactive: 0.069 | inactive: 0.088 | inactive: 0.149 | inactive: -0.097 | inactive: -0.004
9 | SLC7A11 (UniProt Q9UPY5) | inactive: -0.091 | inactive: 0.01 | inactive: 0.022 | inactive: -0.025 | inactive: -0.009 | inactive: -0.011 | inactive: 0.041 | inactive: -0.021 | inactive: 0.158 | inactive: 0.031 | inactive: -0.014
10 | SLC25A4 (UniProt P12235) | inactive: -0.012 | inactive: -0.035 | inactive: -0.056 | inactive: -0.006 | inactive: -0.019 | inactive: -0.12 | inactive: -0.021 | inactive: 0.009 | inactive: -0.025 | inactive: -0.002 | 
11 | SLC30A7 (UniProt Q8NEW0) | inactive: -0.035 | inactive: 0.013 | inactive: -0.276 | inactive: -0.178 | inactive: 0.024 | inactive: -0.024 | inactive: -0.028 | inactive: 0.039 | inactive: 0.025 | inactive: -0.032 | 
12 | SLC6A6 (UniProt P31641) | inactive: -0.099 | inactive: 0.03 | inactive: 0.024 | inactive: -0.19 | inactive: -0.031 | inactive: -0.059 | inactive: 0.065 | inactive: 0.039 | inactive: 0.086 | active: 0.269 | 
13 | SLC25A51 (UniProt Q9H1U9) | inactive: -0.013 | inactive: -0.009 | inactive: -0.024 | inactive: -0.03 | inactive: -0.039 | inactive: -0.093 | inactive: 0.061 | inactive: 0.01 | inactive: -0.021 | inactive: -0.05 | inactive: 0.035
14 | SLC1A4 (UniProt P43007) | inactive: 0.045 | inactive: 0.077 | inactive: 0.097 | inactive: 0.048 | inactive: -0.034 | inactive: -0.07 | inactive: 0.055 | inactive: -0.009 | inactive: -0.064 | inactive: -0.043 | inactive: -0.024
15 | SLC25A42 (UniProt Q86VD7) | inactive: 0.121 | inactive: 0.021 | inactive: -0.015 | inactive: 0.05 | inactive: -0.027 | inactive: -0.102 | inactive: -0.015 | inactive: -0.033 | inactive: -0.034 | inactive: -0.046 | 
16 | SLC27A2 (UniProt O14975) | inactive: -0.068 | inactive: -0.091 | inactive: 0.007 | inactive: -0.047 | inactive: -0.023 | inactive: -0.053 | inactive: 0.059 | inactive: 0.083 | inactive: 0.247 | inactive: -0.035 | 
17 | SLC39A7 (UniProt Q92504) | inactive: -0.04 | inactive: -0.077 | inactive: 0.015 | inactive: -0.04 | inactive: -0.061 | inactive: 0.077 | inactive: -0.015 | inactive: 0.004 | inactive: -0.037 | inactive: -0.041 | inactive: 0.005
18 | SLC25A3 isoform 2 (UniProt Q00325) | inactive: -0.03 | inactive: -0.004 | inactive: 0.037 | inactive: 0.035 | inactive: -0.005 | inactive: -0.028 | inactive: -0.011 | inactive: -0.007 | inactive: -0.021 | inactive: -0.039 | inactive: -0.003
19 | SLC25A26 (UniProt Q70HW3) | inactive: -0.066 | inactive: 0.006 | inactive: -0.142 | inactive: -0.084 | inactive: -0.079 | inactive: -0.056 | inactive: -0.027 | inactive: 0.108 | inactive: 0.135 | inactive: -0.066 | inactive: -0.068
20 | SLC25A39 (UniProt Q9BZJ4) | inactive: 0.059 | inactive: -0.183 | inactive: -0.345 | inactive: -0.105 | inactive: 0.061 | inactive: -0.05 | inactive: -0.015 | inactive: 0.023 | inactive: 0.073 | inactive: 0.223 | 
21 | SLC30A10 (UniProt Q6XR72) | inactive: -0.035 | inactive: 0.088 | inactive: 0.084 | inactive: 0.133 | inactive: -0.003 | inactive: -0.215 | inactive: -0.008 | inactive: -0.05 | inactive: -0.005 | active: -0.432 | 
22 | SLC4A2 (UniProt P04920) | inactive: -0.048 | inactive: -0.055 | active: -0.204 | inactive: -0.123 | inactive: 0.028 | inactive: 0.023 | inactive: -0.072 | inactive: 0.019 | inactive: 0.016 | inactive: -0.084 | 
23 | SLC2A1 (UniProt P11166) | inactive: -0.107 | inactive: 0.02 | inactive: 0.081 | inactive: 0.012 | inactive: -0.054 | inactive: -0.041 | inactive: -0.015 | inactive: -0.027 | inactive: -0.046 | inactive: -0.046 | inactive: -0.02
24 | SLC16A1 (UniProt P53985) | inactive: -0.189 | inactive: -0.021 | inactive: 0.12 | inactive: -0.053 | inactive: -0.132 | inactive: 0.019 | inactive: -0.221 | inactive: 0.008 | inactive: 0.026 | inactive: -0.149 | inactive: 0.041
25 | SLBP (UniProt Q14493) | inactive: 0.043 | inactive: 0.051 | inactive: -0.028 | inactive: -0.005 | inactive: 0.018 | inactive: 0.085 | inactive: 0.035 | inactive: 0.007 | inactive: 0.064 | inactive: 0.035 | 
26 | SLC43A3 isoform 2 (UniProt Q8NBI5) | inactive: -0.043 | inactive: 0.06 | inactive: 0.11 | inactive: 0.02 | inactive: -0.059 | inactive: -0.075 | inactive: -0.152 | inactive: -0.029 | inactive: -0.007 | inactive: -0.004 | inactive: 0.106
27 | SLC19A1 (UniProt P41440) | inactive: 0.1 | inactive: 0.157 | inactive: 0.036 | inactive: 0.007 | inactive: -0.017 | inactive: 0.057 | inactive: 0.02 | inactive: -0.013 | inactive: 0.207 | inactive: -0.033 | 
28 | SLC25A19 (UniProt Q9HC21) | inactive: -0.006 | inactive: 0.012 | inactive: 0.003 | inactive: -0.021 | inactive: -0.011 | inactive: 0.01 | inactive: 0.009 | inactive: 0.016 | inactive: -0.03 | inactive: -0.01 | inactive: 0.037

No new results follow: an excerpt of the list.
Row | Target | log2 fold change [1] | log2 fold change [2] | log2 fold change [3] | log2 fold change [4] | log2 fold change (entinostat) | log2 fold change (vorinostat) | log2 fold change (citarinostat) | log2 fold change (silmitasertib) | log2 fold change [5] | log2 fold change [6] | log2 fold change (entospletinib)
8 | SLC25A17 (UniProt O43808) | inactive: 0.164 | inactive: 0.046 | inactive: -0.011 | inactive: 0 | inactive: 0.045 | inactive: 0 | inactive: 0.069 | inactive: 0.088 | inactive: 0.149 | inactive: -0.097 | inactive: -0.004
9 | SLC7A11 (UniProt Q9UPY5) | inactive: -0.091 | inactive: 0.01 | inactive: 0.022 | inactive: -0.025 | inactive: -0.009 | inactive: -0.011 | inactive: 0.041 | inactive: -0.021 | inactive: 0.158 | inactive: 0.031 | inactive: -0.014
10 | SLC25A4 (UniProt P12235) | inactive: -0.012 | inactive: -0.035 | inactive: -0.056 | inactive: -0.006 | inactive: -0.019 | inactive: -0.12 | inactive: -0.021 | inactive: 0.009 | inactive: -0.025 | inactive: -0.002 | 
11 | SLC30A7 (UniProt Q8NEW0) | inactive: -0.035 | inactive: 0.013 | inactive: -0.276 | inactive: -0.178 | inactive: 0.024 | inactive: -0.024 | inactive: -0.028 | inactive: 0.039 | inactive: 0.025 | inactive: -0.032 | 
12 | SLC6A6 (UniProt P31641) | inactive: -0.099 | inactive: 0.03 | inactive: 0.024 | inactive: -0.19 | inactive: -0.031 | inactive: -0.059 | inactive: 0.065 | inactive: 0.039 | inactive: 0.086 | active: 0.269 | 
13 | SLC25A51 (UniProt Q9H1U9) | inactive: -0.013 | inactive: -0.009 | inactive: -0.024 | inactive: -0.03 | inactive: -0.039 | inactive: -0.093 | inactive: 0.061 | inactive: 0.01 | inactive: -0.021 | inactive: -0.05 | inactive: 0.035
14 | SLC1A4 (UniProt P43007) | inactive: 0.045 | inactive: 0.077 | inactive: 0.097 | inactive: 0.048 | inactive: -0.034 | inactive: -0.07 | inactive: 0.055 | inactive: -0.009 | inactive: -0.064 | inactive: -0.043 | inactive: -0.024
